Common to all, as to assay: affinity purification with mass spectrometry
Assay [1] addresses PfNOT1.2 (P. falciparum (endogenous in strain T996)) (UniProt Q8ILS4).
Assay [2] deals with PfNOT1.1 (P. falciparum (endogenous in strain T996)) (UniProt Q8IIW4).
Assay [3] has as its target PfNOT4 (P. falciparum (endogenous in strain T996)) (UniProt Q8I569).
Assay [4] concerns the target PfNOT1.1 (P. falciparum (endogenous in strain T996)) (UniProt Q8IIW4). The source holds these as a separate data set.
The target in assay [5] is PfNOT4 (P. falciparum (endogenous in strain T996)) (UniProt Q8I569). This is another data set of the same source.
Assay [6] addresses PfCAF1 (P. falciparum (endogenous in strain T996)) (UniProt C0H4T9).
In assay [7] the target is PfNOT1.2 (P. falciparum (endogenous in strain T996)) (UniProt Q8ILS4). The source holds these as a separate data set.

Like-named read-outs stand apart in the source and are kept apart here. No constants are given. Whether binding was seen depends on the method and setting. Binding seen in cells or lysates may run through a third protein. Here binding means that the protein was enriched with, or labelled near, the bait; the list need not be complete. For part of these data: No binding means not detected with the bait.

The results in this text go back to article doi:10.1101/2020.02.12.945477.

In the case of “PAIP1 PF3D7_1107300 (from UniProt Q8IIS9)”, the binding result in assay [1] is on record as “binds”.

In the case of PfCAF1 (from UniProt C0H4T9 1-1774), the binding result in assay [2] and in assay [1] was “binds” each time.

Turning to PfNOT1.2 (from UniProt Q8ILS4 1-4466), the binding entry in assay [2] and in assay [3] was “no binding” in each case.

For the molecule “protein phospharase PP1 PF3D7_1414400 (from UniProt Q8ILV1 1-304)”, in assay [2], the binding entry is recorded as “binds”.

For “ApiAP2 transcription factor PF3D7_1239200 (from UniProt Q8I531 1-2577)”, the binding result in assay [2] was “binds”.

For “polyadenylate-binding protein PF3D7_1360900 (from UniProt C0H5J5)”, the binding entry in assay [2] was “binds”.

With “acetyltransferase PF3D7_1323300 (from UniProt Q8IE83)”, the binding result in assay [2] was “binds”.

For PfNOT1.1 (from UniProt Q8IIW4 1-3371), the binding entry in assay [3] and in assay [1] was “no binding” in each case.

With “chromodomain helicase DNA-binding protein 1 homolog PF3D7_1023900 (from UniProt Q8IJG6 1-3328)”, the binding entry in assay [2] is recorded as “binds”.

With “polyadenylate-binding protein PABP PF3D7_1224300 (from UniProt Q8I5H4)”, the binding result in assay [1] is on record as “binds”.

Take “EIF3G PF3D7_0815600 (from UniProt Q8IAZ3)”: in assay [1], the binding entry is “binds”.

B1: exported protein PF3D7_0501000 (protein, UniProt Q8I490 1-260)
chain: MMNKKSMQTKNFLSERNYGSIDQNVRTKNKRRLMKFQSKSKAKSFLFLLELMVFSLFIWILKSAKHNVSSKSIYNKNKFHNTFNRRDTRVLAEQEDQYIRNPNNSNYPDRDLDICNWDEPHNPEKNPCAIPQDDLSNEGIEIIDYVDKKEEEKLKNDLKIHFGKQHYALIKDIYKPIQSYANNFSKVVDHYVGSLKRINNAFNLDILRTVICTAFLIQPIVLLMKLHPELLVHIPINIIISMVVFKLMHKSLRNEQESNK
Consider B1, for which, in assay [4], the binding entry is listed as “binds”.

B2: PfCAF40 (protein, UniProt Q8I427 1-652)
chain: MVINNDMVKGSNKMKNLNKNIFPVNPNNNVVSNINSSKLNQGGVCIAEDINMGSVNNTNDLNNSDEIINCGNMNKSEDINKPGDINNSDDVNNPDDINNKINVNGIHSPLNESLQNLDRNNMSVCNLGNVTTPVNNINNNINNNINCNNNNNNNNNNSSNSNSNSNSNSNPICINNNENNKYKNSNKCNDFHKDNTTSEQDQTKNDNNINNLSSGQENTINNEEEKKKVYQLVYDLCFSEKRENALLELSRKRETYHDIAPVLWNSFGTITTLLQEIVSIYPQLSPPLLTTSSSNRVCNSLALLQCVASHPETKQHFLNAHIPLFLYPFLNAESKNRPFEYLRLTSLGVIGALVKVDNPEVINFLLQTEIIPLCLRIMETGSELSKTVATFIVQKILIDELGLNYICATPERFYAVSTVLANMVNSLVENPSSRLLKHIVRCYLRLSENARALEALKYCLPEPLRHVHKTFLPCLKEDPFTKKWLLQLLYNINNDDENLTMKNTNFINHNTNQNTSNINNQTLNKISQNVYTNLNVPTALNEININIPKTDTHTNIHNINDNIENSSSQSFNNKINDTNLKCGKINNNKLNPDLTNNDINDNNINDNNNDNNDNNNINDNIMNDDNNNINGDSVNNNNMNDDSVNNNNMNDN
On to B2, for which the binding result in assay [4], in assay [5], in assay [6] and in assay [7] was “binds” throughout.

B3: ALBA1 PF3D7_0814200 (protein, UniProt Q8IAX8 1-248)
chain: MKKDREPIDEDEMRITSTGRMTNYVNYGAKILGDEDKKSIKIKATGNAIGKAVTLAEIIKRRFKGLHQITRCGSTVITDQYVSGQDNSEHVVQEKTVSFIEILLSREQLDMKDAGYQPPLDEKYVKEMTPEEIVNSRPFRRGGFRPRFYRGFRGGRGGFLRRGGYRGFGDRVYEPRSSFRGGRGSGYGGNFGRGGYRSGGGMGGGFRGGFRGGFRGGRDGGYRGGNRGGSRSGFRGGRGGFRGGRALS
B3: in assay [7], the binding entry is recorded as “binds”.

B4: pyruvate kinase PF3D7_0626800 (protein, UniProt C6KTA4 1-511)
chain: MSSFKYKNSAAGASMQSAANITLRQILEPNNVNLRSKKTHIVCTLGPACKSVETLVKLIDAGMDICRFNFSHGSHEDHKEMFNNVLKAQELRPNCLLGMLLDTKGPEIRTGFLKNKEVHLKEGSKLKLVTDYEFLGDETCIACSYKKLPQSVKPGNIILIADGSVSCKVLETHEDHVITEVLNSAVIGERKNMNLPNVKVDLPIISEKDKNDILNFAIPMGCNFIAASFIQSADDVRLIRNLLGPRGRHIKIIPKIENIEGIIHFDKILAESDGIMIARGDLGMEISPEKVFLAQKLMISKCNLQGKPIITATQMLESMTKNPRPTRAEVTDVANAVLDGTDCVMLSGETAGGKFPVEAVTIMSKICLEAEACIDYKLLYQSLVNAIETPISVQEAVARSAVETAESIQASLIIALTETGYTARLIAKYKPSCTILALSASDSTVKCLNVHRGVTCIKVGSFQGTDIVIRNAIEIAKQRNMAKVGDSVIAIHGIKEEVSGGTNLMKVVQIE
With B4, the binding entry in assay [4] is recorded as “binds”.
